Assay results taken from patent EP3763372B1, “TREATMENTS COMPRISING A COMBINATION OF DEXTROMETHORPHAN AND BUPROPION” (dated 2026).

Amino acid sequences for entries named in this document (tags omitted).
UniProt P10635, whole entry: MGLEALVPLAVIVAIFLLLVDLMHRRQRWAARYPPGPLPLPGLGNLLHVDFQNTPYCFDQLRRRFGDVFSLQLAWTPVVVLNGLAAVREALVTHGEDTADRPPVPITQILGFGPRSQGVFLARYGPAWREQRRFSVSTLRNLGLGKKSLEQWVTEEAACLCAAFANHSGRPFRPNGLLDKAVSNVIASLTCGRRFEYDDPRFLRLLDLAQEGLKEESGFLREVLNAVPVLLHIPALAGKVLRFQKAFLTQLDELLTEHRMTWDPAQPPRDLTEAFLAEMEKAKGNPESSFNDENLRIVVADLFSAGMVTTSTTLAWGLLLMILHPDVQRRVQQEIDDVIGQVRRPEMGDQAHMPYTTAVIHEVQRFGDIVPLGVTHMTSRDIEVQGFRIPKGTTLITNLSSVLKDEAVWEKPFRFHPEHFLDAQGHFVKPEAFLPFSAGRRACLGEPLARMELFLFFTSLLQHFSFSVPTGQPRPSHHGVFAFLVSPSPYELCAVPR

Key:
[1] = biological target: metabolism of dextromethorphan in human liver microsomes (Homo sapiens, UniProt P10635); experiment: Inhibition of dextromethorphan metabolism (dextrorphan formation) in human liver microsomes; conditions: read-out: Mean IC50; human liver microsomes 0.5 mg/mL, dextromethorphan 5 µM, 37 °C, 2 mM NADPH, pH 7.4
[2] = Pharmacokinetic study in human subjects given dextromethorphan alone or with bupropion; plasma concentrations by LC-MS/MS; conditions: Day 8, after bupropion administration (150 mg, with dextromethorphan); label = analyte in plasma

SMILES	pIC50 [1]	average plasma concentrations [2] [ng/mL]
C[C@@H](NC(C)(C)C)[C@H](O)c1cccc(Cl)c1 (relative stereo)	5.41	≥ 100
C[C@H](NC(C)(C)C)[C@H](O)c1cccc(Cl)c1 (relative stereo)	5.85	≥ 20
C[C@H]1NC(C)(C)CO[C@]1(O)c1cccc(Cl)c1	5.09	

pIC50: −log10 of the molar value. The match of structure and compound is tentative.
